This note sets out measurements from PubChem BioAssay AID2685 (National Center for Advancing Translational Sciences (NCATS), 2010).

Some of the results follow. These are further read-outs of the screen, such as a control signal, another cell line or another target. No call is given for them. Most of these compounds were active or inconclusive in the main read-out, so they are no random draw. The note in brackets gives the kind of curve behind each potency; many fits are weak.

A short description of this assay: qHTS Assay for Lipid Storage Modulators in Drosophila S3 Cells.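 For cell number change: cells counted by Cell Tracker Red CMTPX staining in the red channel.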 Particulars: BODIPY lipid droplet fluorescence, 18-24 h; for cell number change: measured here: cell count max response, cells fed with added oleic acid. Summed up: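 Drosophila S3 cells got compounds at several concentrations plus oleic acid (400 uM solution). Laser-scanning cytometry with 488 nm excitation read lipid droplets at 500-530 nm and cells at 575-640 nm. Percent activity was relative to 20 uM Triacsin C.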

Where [1] appears, read: measured here: lipid fluorescence (Fed channel) AC50, cells fed with added oleic acid.
[2] abbreviates: measured here: cell number channel AC50, cells fed with added oleic acid.

On to `CC(=O)c1ccc(N2CCN(Cc3nc(Cc4ccccc4)no3)CC2)cc1`, for which the cell number change is 8.23%. In addition, the AC50 under setting [1] was 0.00411 µM [rising, full curve, poor fit].
For the compound `NS(=O)(=O)c1ccc(-c2c(-c3ccccc3)sc3ccccc23)cc1`, the cell number change is -19.5%. Moreover, under setting [1], the AC50 was 1.16 µM [rising, single point].
For `Cc1c(NS(=O)(=O)c2ccc(N3CCCCC3)c([N+](=O)[O-])c2)c(=O)n(-c2ccccc2)n1C`, the cell number change was -27.1%. Also, the AC50 under setting [2] is 0.116 µM [falling, full curve, poor fit]. Besides, the AC50 under setting [1] was 0.00411 µM [falling, full curve, poor fit].
Take `CCOc1ccc(S(=O)(=O)N(C)CC(=O)N2CCN(CC)CC2)cc1`: the cell number change was -0.435%. Under setting [1], the AC50 was 6.51 µM [rising, single point].
As to `O=C(CSc1cccc2cccnc12)Nc1ccc(S(=O)(=O)N2CCOCC2)cc1`, the cell number change is -59%. The AC50 under setting [2] is 29.1 µM [falling, single point]. Under setting [1], the AC50 was 29.1 µM [falling, single point].
For the compound `COc1cccc(NC(=O)c2ccc(CN3CCOCC3)cc2)c1`, the cell number change is -2.31%.
Turning to `CCOc1ccc(OCCC(=O)N(CC)CC(=O)NCc2ccc(Cl)cc2)cc1`, the cell number change turned out to be 88.5%. Also, the AC50 under setting [2] is 18.4 µM [rising, single point].
For the compound `CSc1cccc(NS(=O)(=O)c2cccc3nsnc23)c1`, the cell number change was found to be 5.41%. Besides, the AC50 under setting [1] was 29.1 µM [rising, single point].
For the compound `CCOc1ccc(N2C(=O)CC(N3CCN(C(=O)c4ccco4)CC3)C2=O)cc1` (centres undefined), the cell number change was -11.5%. Also, the AC50 under setting [1] was 29.1 µM [rising, single point].
With `N#Cc1ccc(CSc2nnc(-c3ccccn3)n2-c2ccccc2)cc1`, the cell number change is 34.6%. Besides, under setting [2], the AC50 was 1.84 µM [rising, partial curve].
With `CC(Oc1ccccc1F)C(=O)NNC(=O)CCNC(=O)c1ccco1` (centres undefined), the half-maximal activity concentration (AC50) under setting [2] was 2.31 µM [rising, partial curve].
In the case of `CCOC(=O)C(NC(C)=O)(N1CCc2ccccc2C1)C(F)(F)F` (centres undefined), the cell number change was -9.04%. Also, the AC50 under setting [1] is 6.51 µM [falling, partial curve, poor fit].
Consider `O=C(COC(=O)c1ccccn1)Nc1c(Cl)cccc1Cl`, for which the concentration at half-maximal activity (AC50) under setting [1] was 29.1 µM [falling, single point].
Consider `CCCc1nnc(NC(=O)CCC(=O)NCc2ccccc2Cl)s1`, for which the cell number change turned out to be 10.3%.
With `CCCNC(=O)COC(=O)c1ccc(OCC(=O)Nc2ccccc2OC)c(OC)c1`, the cell number change came to 13.5%. Moreover, under setting [1], the AC50 was 0.731 µM [rising, single point].
For `CCc1nnc(NC(=O)c2cnccn2)s1`, the cell number change is 19%.
In the case of `CC(=O)Nc1ccc(S(=O)(=O)Oc2ccc(/C=C3\SC(N)=NC3=O)cc2)cc1`, the cell number change was 3.21%. Moreover, the AC50 under setting [2] was 6.51 µM [falling, single point]. The concentration at half-maximal activity (AC50) under setting [1] was 4.61 µM [falling, single point].
For the compound `O=C1/C(=C\c2ccc(-c3ccccc3Cl)o2)SC(=S)N1CC1CCCO1` (centres undefined), the cell number change was 17.7%.
`COc1ccc(C(=O)O)cc1Nc1cc(C)nc2ncnn12`: the cell number change worked out at 15.6%. For the same compound, under setting [1], the concentration at half-maximal activity (AC50) was 0.731 µM [falling, full curve, poor fit].
As for `COc1cccc2cc(C(=O)NCc3ccco3)c(=Nc3ccc(C(=O)O)cc3)oc12`, the cell number change was 13.2%. Under setting [1], the AC50 is 0.58 µM [rising, single point].
For the compound `CC1(C)N([O-])C2=C(CCCC2)[N+]1=O`, the AC50 under setting [1] was 29.1 µM [rising, single point].
As to `O=C(COc1ccc(S(=O)(=O)N2CCCC2)cc1Cl)NCc1ccco1`, the cell number change was determined as 12.7%. In addition, the AC50 under setting [1] was 29.1 µM [rising, single point].
In the case of `Oc1c(Br)cc(Br)cc1C=NCc1ccccc1`, the cell number change was 2.72%. Moreover, the AC50 under setting [2] is 0.116 µM [rising, full curve, poor fit]. Also, the AC50 under setting [1] is 0.146 µM [rising, full curve, poor fit].
With `COc1cc(CNc2ccc(N3CCCCC3)cc2)ccc1OCC(=O)NC(C)(C)C`, the cell number change is -7.69%.
In the case of `Oc1ccc(/C=N/n2c(-c3ccco3)csc2=Nc2cccnc2)c(O)c1`, the cell number change is -1.77%. In addition, the AC50 under setting [1] is 0.366 µM [rising, full curve].
For `CCOc1ccc(CN2C(=O)c3ccccc3C2C(=O)NC(C)CC)cc1OC` (centres undefined), the cell number change is 42.3%. Further, the AC50 under setting [2] was 4.11 µM [rising, full curve].
On to `CC12CC(O)C3c4ccc(O)cc4CCC3C1CC/C2=N\O` (centres undefined), for which the cell number change stood at 9.22%. In addition, under setting [1], the AC50 is 29.1 µM [rising, single point].
With `O=C(Nc1ccc(N2CCOCC2)c(Cl)c1)c1ccccc1F`, the half-maximal activity concentration (AC50) under setting [2] is 0.0517 µM [rising, full curve, poor fit].
As to `Cc1ccsc1C(=O)OCC(=O)c1cc(C)n(CC2CCCO2)c1C` (centres undefined), the cell number change was 27.3%. Moreover, under setting [1], the half-maximal activity concentration (AC50) is 29.1 µM [rising, partial curve, poor fit].
With `c1ccc(CCNc2nc(-c3ccncc3)nc3ccccc23)cc1`, the cell number change came to 1.99%.
On to `CC(C)N(O)C(=O)NC(C)(C)C`, for which the cell number change is -47.6%. Moreover, under setting [2], the AC50 is 6.51 µM [falling, full curve]. Further, under setting [1], the AC50 was 16.4 µM [falling, partial curve].
Turning to `Cc1cc(C(=O)Nc2ccc(N3CCCC3)c(Cl)c2)ccc1[N+](=O)[O-]`, the cell number change is -1.75%. Moreover, the AC50 under setting [2] is 4.61 µM [falling, single point].
For `O=C1c2ccccc2C(Nc2ccc3c(c2)OCCO3)N1Cc1ccco1` (centres undefined), the cell number change is -3.58%. For the same compound, the AC50 under setting [1] is 32.6 µM [rising, single point].
For `COc1ccc(-n2c(-c3ccc(Br)cc3)c[n+]3c2CCC3)cc1`, the cell number change was -11.2%. Besides, the AC50 under setting [1] is 0.206 µM [rising, partial curve, poor fit].
In the case of `CCCCn1c(-c2ccccc2)nnc1-c1ccccc1`, the cell number change is -12%. Also, under setting [1], the concentration at half-maximal activity (AC50) was 5.17 µM [rising, partial curve].
Regarding `COc1cc(S(=O)(=O)NC2CCCC2)c(OC)cc1C`, the cell number change was -23.7%. The AC50 under setting [1] is 7.31 µM [falling, partial curve].
Consider `O=C(COC(=O)c1cc(S(=O)(=O)N2CCCC2)ccc1O)Nc1ccc(SC(F)F)cc1`, for which the cell number change was -0.125%. The AC50 under setting [1] is 4.61 µM [rising, full curve].
Consider `CC(=O)NS(=O)(=O)c1ccc(NC(=O)CCC(=O)Oc2ccc(C)cc2)cc1`, for which the cell number change came to 41.5%. The AC50 under setting [2] was 4.11 µM [rising, full curve]. In addition, under setting [1], the AC50 is 0.0731 µM [rising, full curve].
As for `Cc1ccc(NC(=O)C2CC(=O)n3c(nc4ccccc43)N2)cc1Cl` (centres undefined), the cell number change was -18.7%. Moreover, under setting [1], the AC50 was 29.1 µM [falling, single point].
As to `Cc1ccc(CN(C(=O)c2csnn2)C(C(=O)NC2CCCC2)c2ccc(C)o2)cc1` (centres undefined), the cell number change is -48.1%. Besides, under setting [2], the AC50 is 20.6 µM [falling, single point]. In addition, the AC50 under setting [1] is 14.6 µM [falling, partial curve].
In the case of `O=C(Nc1c(C(=O)O)[nH]c2ccccc12)NC1CCCCC1`, the cell number change is -28.7%. Moreover, under setting [1], the AC50 is 16.4 µM [falling, single point].
On to `COc1ccc(CCN2CC(C(=O)NCc3cc(C)on3)CCC2=O)cc1` (centres undefined), for which the cell number change is 35.8%. The AC50 under setting [2] is 29.1 µM [rising, single point]. Besides, under setting [1], the AC50 is 29.1 µM [rising, single point].
As for `CCCCC1(C(=O)OCC)NC(c2ccc(O)cc2)C2C(=O)N(c3ccccc3)C(=O)C21` (centres undefined), the cell number change worked out at 17.9%. Also, the AC50 under setting [1] was 16.4 µM [falling, single point].
`CC(=O)c1ccc(NC(=S)NC(=O)c2c(Cl)c(C)nn2C)cc1`: the cell number change was 22.1%. The AC50 under setting [1] is 7.31 µM [rising, partial curve].
Turning to `O=C(CN1C(=O)CSC1=O)Nc1ccc2c(c1)OCCO2`, the cell number change was -33.8%. Moreover, the AC50 under setting [2] is 0.164 µM [falling, full curve, poor fit].
As to `CCOc1cc(C2NC(=O)NC(c3ccccc3)=C2C(=O)c2ccccc2)c(Br)cc1OCC(=O)O` (centres undefined), the cell number change stood at 133%. Further, the AC50 under setting [2] was 6.51 µM [falling, single point]. Besides, the AC50 under setting [1] was 29.1 µM [rising, single point].
Regarding `CC1CCCC(NC(=O)C2CCN(S(=O)(=O)c3cnc[nH]3)CC2)C1C` (centres undefined), the cell number change came to 13.4%. The AC50 under setting [1] is 18.4 µM [rising, partial curve].
With `Cc1[nH]c2ccccc2c1/C=N/NC(=O)c1cc(-c2ccncc2)nc2ccccc12`, the cell number change is -2.89%.
With `OCC[C@H]1C[C@H](O)[C@@H](O)[C@@]2(CCc3ccccc3CO2)O1`, the cell number change is -6.56%. The AC50 under setting [1] is 3.26 µM [falling, single point].
In the case of `CCOc1ccc(C(=O)NC(=S)Nc2cccc(NC(=O)c3ccco3)c2)cc1[N+](=O)[O-]`, the cell number change is -47.9%. In addition, under setting [2], the AC50 is 29.1 µM [falling, single point]. For the same compound, the AC50 under setting [1] was 20.6 µM [falling, single point].
`COc1ccc(OC(C)=O)c(C2c3cc(OC)c(OC)cc3CCN2C(C)=O)c1` (centres undefined): the cell number change was determined as 16.6%. Also, under setting [2], the AC50 is 0.259 µM [rising, full curve, poor fit]. Besides, the half-maximal activity concentration (AC50) under setting [1] was 0.92 µM [rising, partial curve].
As for `O=C1C2C3C=CC(CC3)C2C(=O)N1c1ccc(F)cc1` (centres undefined), the cell number change is -5.11%. The AC50 under setting [1] is 0.058 µM [falling, full curve, poor fit].
Consider `CC(=O)NC(Cc1ccccc1)C(=O)OCC(=O)c1ccc(Cl)cc1` (centres undefined), for which the cell number change was found to be 7.37%. The AC50 under setting [1] was 6.51 µM [falling, single point].
Regarding `O=C(CCCc1nc(-c2ccc(Cl)cc2)no1)N1CCOCC1`, the cell number change is -31.2%. Also, the AC50 under setting [2] was 10.3 µM [falling, partial curve, poor fit]. Also, the AC50 under setting [1] is 0.146 µM [falling, full curve, poor fit].
As to `CNS(=O)(=O)c1cccc(C(=O)NCC(C)(C)N2CCCCC2)c1`, the cell number change is -26.4%.
Take `O=C(Nc1ccc(Cl)c(Cl)c1)N1CCOCC1`: the cell number change is -8.11%. Besides, the AC50 under setting [2] is 6.51 µM [falling, single point].
For the compound `COc1ccc(C2=NOC(COC(=O)c3ccc4ccccc4n3)C2)cc1` (centres undefined), the cell number change was 9.97%. Further, the AC50 under setting [1] was 16.4 µM [rising, single point].
Regarding `O=C(Nc1ccccc1O)c1cc2cc(Br)ccc2oc1=O`, the cell number change came to 4.5%. Also, the AC50 under setting [1] is 0.58 µM [rising, single point].
Consider `CCN(C(=O)c1c(N)cnn1C)c1ccccc1`, for which the cell number change came out at 31.5%.
Regarding `CCCCC(=O)Nc1ccc(C(N)=O)cc1`, the cell number change was -4.43%. Also, the AC50 under setting [1] is 6.51 µM [falling, single point].

The term AC50 denotes the midpoint of the concentration-response curve, whichever way the signal moves. Higher therefore signals activity only at high concentration.
